Where “and” joins values, the source holds several entries; their conditions need not be identical. Equal values may be shown once. The shares of active, inactive and inconclusive entries below differ from those in the screen. Potencies beside an inconclusive call are fits to weak or partial responses and may not hold up. Where a structure was tested more than once in an assay, its records may differ in their call. Calls of active or inactive are those of the source. Rule for the calls: active = hit-call score of the fitted dose curve at least 0.9, where 1 is the maximum; inconclusive = response in the unintended direction; inactive = score below 0.9.
Target: bovine Estrogen Receptor (ER), ESR1 (gene 407238) (UniProt P49884)
Test: NVS_NR_bER: NovaScreen (NVS) Nuclear Receptor Binding Assay for bovine Estrogen Receptor (ER) (AID 2283345);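 note: actives lower the bound radioligand count which means they displace the ER ligand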
In short: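 Bovine uterine membranes; tritiated or iodinated radioligand; competitive displacement; 18 h; scintillation read; DMSO negative control; 25 uM duplicates, then concentration series for actives.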

Protein sequences, listed by entry. Tags and fused reporters are not part of them. Lines headed by an entry give the natural chain unless they say otherwise; changes in a name come on top.
UniProt P49884, whole entry, looked up: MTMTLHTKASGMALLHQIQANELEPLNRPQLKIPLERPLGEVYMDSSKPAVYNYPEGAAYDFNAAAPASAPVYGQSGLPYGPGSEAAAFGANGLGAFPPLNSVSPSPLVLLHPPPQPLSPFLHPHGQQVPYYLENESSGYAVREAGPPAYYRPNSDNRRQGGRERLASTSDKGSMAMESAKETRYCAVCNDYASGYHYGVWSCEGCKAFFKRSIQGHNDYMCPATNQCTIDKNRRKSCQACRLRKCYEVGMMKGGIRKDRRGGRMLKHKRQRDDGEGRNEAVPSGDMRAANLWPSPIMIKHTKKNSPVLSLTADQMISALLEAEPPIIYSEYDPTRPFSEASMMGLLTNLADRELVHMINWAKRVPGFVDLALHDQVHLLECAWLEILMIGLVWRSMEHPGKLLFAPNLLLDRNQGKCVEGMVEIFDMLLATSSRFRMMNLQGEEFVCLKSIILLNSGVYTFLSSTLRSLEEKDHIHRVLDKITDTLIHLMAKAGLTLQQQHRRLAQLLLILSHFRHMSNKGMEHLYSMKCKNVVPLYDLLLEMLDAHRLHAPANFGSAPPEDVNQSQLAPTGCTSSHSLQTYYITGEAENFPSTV
UniProt O97775: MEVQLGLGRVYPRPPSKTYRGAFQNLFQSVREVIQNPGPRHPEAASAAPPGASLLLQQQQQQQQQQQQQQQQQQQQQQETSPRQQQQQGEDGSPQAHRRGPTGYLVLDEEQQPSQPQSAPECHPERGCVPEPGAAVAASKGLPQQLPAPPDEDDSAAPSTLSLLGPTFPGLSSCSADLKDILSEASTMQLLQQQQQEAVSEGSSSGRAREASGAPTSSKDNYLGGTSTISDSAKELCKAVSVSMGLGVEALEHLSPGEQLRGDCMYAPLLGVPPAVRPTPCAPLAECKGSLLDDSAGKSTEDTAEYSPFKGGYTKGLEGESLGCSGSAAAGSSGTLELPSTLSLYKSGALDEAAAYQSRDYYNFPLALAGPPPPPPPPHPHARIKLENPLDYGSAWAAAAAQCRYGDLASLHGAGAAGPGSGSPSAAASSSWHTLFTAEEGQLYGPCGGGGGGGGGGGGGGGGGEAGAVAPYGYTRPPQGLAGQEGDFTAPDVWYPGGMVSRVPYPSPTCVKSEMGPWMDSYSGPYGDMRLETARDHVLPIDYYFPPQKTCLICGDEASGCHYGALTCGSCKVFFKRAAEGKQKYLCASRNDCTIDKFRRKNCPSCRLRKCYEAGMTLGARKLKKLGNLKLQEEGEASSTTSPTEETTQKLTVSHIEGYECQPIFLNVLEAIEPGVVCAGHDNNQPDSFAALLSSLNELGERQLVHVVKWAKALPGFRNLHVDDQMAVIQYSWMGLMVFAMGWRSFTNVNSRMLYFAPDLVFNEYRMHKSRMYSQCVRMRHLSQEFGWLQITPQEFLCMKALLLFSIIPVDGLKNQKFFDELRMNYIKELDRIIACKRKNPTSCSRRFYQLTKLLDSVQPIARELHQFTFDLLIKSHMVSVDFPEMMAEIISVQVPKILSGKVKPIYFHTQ
UniProt P03372, whole entry, looked up: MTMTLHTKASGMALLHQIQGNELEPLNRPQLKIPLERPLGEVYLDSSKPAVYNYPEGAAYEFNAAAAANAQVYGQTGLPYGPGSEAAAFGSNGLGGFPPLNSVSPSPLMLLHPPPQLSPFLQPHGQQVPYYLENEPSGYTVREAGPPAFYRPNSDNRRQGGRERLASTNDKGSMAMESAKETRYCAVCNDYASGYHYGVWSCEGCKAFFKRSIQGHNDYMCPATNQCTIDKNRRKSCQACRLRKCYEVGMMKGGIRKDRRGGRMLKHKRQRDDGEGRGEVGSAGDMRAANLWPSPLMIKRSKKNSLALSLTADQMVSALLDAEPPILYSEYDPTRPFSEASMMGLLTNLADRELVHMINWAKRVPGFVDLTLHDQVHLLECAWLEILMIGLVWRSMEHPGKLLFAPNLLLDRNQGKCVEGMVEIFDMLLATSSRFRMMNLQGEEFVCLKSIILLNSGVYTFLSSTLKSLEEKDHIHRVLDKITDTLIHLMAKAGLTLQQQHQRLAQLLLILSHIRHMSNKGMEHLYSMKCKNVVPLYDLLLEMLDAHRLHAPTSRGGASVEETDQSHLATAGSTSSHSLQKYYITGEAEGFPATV

Row | SMILES | AC50 | outcome
1 | C[C@@H]1C[C@H]2[C@@H]3CCC4=CC(=O)C=C[C@]4(C)[C@@]3(F)[C@@H](O)C[C@]2(C)[C@@]1(O)C(=O)COP(=O)(O)O | inconclusive: 23.8 µM | 
2 | CO[Si](C)(C)OC | inconclusive: 1.46 µM | 
3 | Cc1ccc(O)c(-n2nc3ccccc3n2)c1 | inconclusive: 25 µM | 
4 | Cc1cccc(O)c1 |  | inactive
5 | CCCCCCCOC(=O)c1ccc(O)cc1 | active: 13.2 µM | 
6 | CNCc1cc(F)ccc1Oc1ccc(Cl)c(Cl)c1 |  | inactive
7 | CCCCCCCCCCCCc1ccc(O)cc1 | active: 10.7 µM | 
8 | Nc1nc(=S)c2[nH]cnc2[nH]1 | inconclusive: 0.958 µM | 
9 | COCC(C)O (stereo not drawn) | active: 3.69 µM | 
10 | CCCCCCCCCCCCCC[N+](C)(C)C | inconclusive: 22.1 µM and inconclusive: 359 nM | 
11 | C#C[C@]1(O)CC[C@H]2[C@@H]3CCC4=CC(=O)CC[C@@H]4[C@H]3CC[C@@]21CC | active: 6.85 µM | 
12 | c1ccc(B(c2ccccc2)c2ccccc2)cc1 |  | inactive
13 | O=C1CCCCC1 | inconclusive: 0.221 µM | 
14 | CC/C=C\C/C=C\C/C=C\CCCCCCCC(=O)O | inconclusive: 0.303 µM | 
15 | CCOC(=O)c1ccc(O)cc1 | inconclusive: 0.00297 µM | 
16 | CCCCCCCCCCCC(=O)OCC(O)CO (stereo not drawn) |  | inactive
17 | CCC(Cc1ccccc1)(C(=O)c1ccc(N2CCOCC2)cc1)N(C)C (stereo not drawn) | inconclusive: 25 µM | 
18 | Cc1cccc(N)n1 |  | inactive

Row | SMILES | AC50 | outcome
19 | CN(C)c1ccc(C(=C2C=CC(=[N+](C)C)C=C2)c2ccc(N(C)C)cc2)cc1 |  | inactive
20 | C[C@]12C=CC(=O)C=C1CC[C@H]1[C@@H]3C[C@@H](O)[C@](O)(C(=O)CO)[C@@]3(C)C[C@H](O)[C@@]12F |  | inactive
21 | C[C@]12C[C@H](O)[C@H]3[C@@H](CCC4=CC(=O)CC[C@@]43C)[C@@H]1CC[C@@H]2C(=O)CO | inconclusive: 25 µM and inconclusive: 251 nM | 
22 | c1ccc2cc3c(ccc4ccccc43)cc2c1 | inconclusive: 599 nM and inconclusive: 608 nM | inactive
23 | CC(=O)CC(=O)N(C)C |  | inactive
24 | CCCCC(CC)C(=O)OCCOCCOCCOC(=O)C(CC)CCCC (stereo not drawn) |  | inactive
25 | CC(C)(C)C(=O)C(=O)O |  | inactive
26 | CC(=O)S[C@@H]1CC2=CC(=O)CC[C@]2(C)[C@H]2CC[C@@]3(C)[C@@H](CC[C@@]34CCC(=O)O4)[C@H]12 | inconclusive: 0.855 nM and inconclusive: 4.96 µM and inconclusive: 25 µM | inactive
27 | CC(C)c1cccc(O)c1 |  | inactive
28 | CCCCCCCCCC=CCC1CC(=O)OC1=O (stereo not drawn) | inconclusive: 1.46 µM | 
29 | O=C1c2ccccc2C(=O)N1SC1CCCCC1 | inconclusive: 0.0455 µM | 
30 | CN(C[C@@H](CC[N+]12CCC(C3CCCCC3)(CC1)CC2)c1ccc(Cl)c(Cl)c1)C(=O)c1cc(C(F)(F)F)cc(C(F)(F)F)c1 | inconclusive: 6.02 µM | 
31 | O=C(Nc1ccccc1SSc1ccccc1NC(=O)c1ccccc1)c1ccccc1 | inconclusive: 25 µM | 
32 | C#C[C@]1(O)CC[C@H]2[C@@H]3CCC4=CC(=O)CC[C@@H]4[C@H]3CC[C@@]21C |  | inactive
33 | CCCc1ccc(O)cc1 | inconclusive: 25 µM | 
34 | NC(=NCCCCCCN=C(N)/N=C(\N)Nc1ccc(Cl)cc1)/N=C(\N)Nc1ccc(Cl)cc1 | inconclusive: 25 µM | inactive
35 | CN(C)c1ccc(C(=N)c2ccc(N(C)C)cc2)cc1 | inconclusive: 0.496 µM | 

Target: chimpanzee Androgen Receptor (AR), AR (gene 747460) (UniProt O97775)
Test: NVS_NR_cAR: NovaScreen (NVS) Nuclear Receptor Binding Assay for chimpanzee Androgen Receptor (AR) (AID 2283346);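 note: radioligand displacement from AR measured by scintillation counting in a cell-free assay; a loss of bound radioligand signal versus DMSO counts as binding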
In short: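 Radioligand binding to chimpanzee AR expressed in Sf9/Sf21 cells, cell-free, measured 72 h after dosing by lysate-based scintillation counting. Loss of signal vs DMSO; initial duplicate screen at 25 uM, actives retested in concentration series.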

Row | SMILES | AC50
36 | CCCCCCCCCCCCCC[N+](C)(C)C | inconclusive: 0.391 µM
37 | C[C@]12C=CC(=O)C=C1CC[C@H]1[C@@H]3C[C@@H](O)[C@](O)(C(=O)CO)[C@@]3(C)C[C@H](O)[C@@]12F | active: 32.6 µM
38 | C[C@]12C[C@H](O)[C@H]3[C@@H](CCC4=CC(=O)CC[C@@]43C)[C@@H]1CC[C@@H]2C(=O)CO | active: 4.56 µM

Target: Estrogen receptor (Homo sapiens) (UniProt P03372)
Test: NVS_NR_hER: NovaScreen (NVS) Nuclear Receptor Binding Assay for human Estrogen Receptor (ER) (AID 2283348)
In short: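 MCF7-derived receptor extract, radiolabelled ligand, competitive displacement. Read: scintillation counts at 18 h. DMSO = negative control/baseline. Primary 25 uM duplicate; follow-up concentration–response.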

Row | SMILES | AC50 | outcome
39 | CCCCCCCCCCCCCC[N+](C)(C)C | active: 35 µM and inconclusive: 7.36 µM | 
40 | C[C@]12C=CC(=O)C=C1CC[C@H]1[C@@H]3C[C@@H](O)[C@](O)(C(=O)CO)[C@@]3(C)C[C@H](O)[C@@]12F | active: 38.3 µM | 
41 | C[C@]12C[C@H](O)[C@H]3[C@@H](CCC4=CC(=O)CC[C@@]43C)[C@@H]1CC[C@@H]2C(=O)CO | inconclusive: 0.309 µM | 
42 | c1ccc2cc3c(ccc4ccccc43)cc2c1 | inconclusive: 25 µM | 
43 | CC(=O)S[C@@H]1CC2=CC(=O)CC[C@]2(C)[C@H]2CC[C@@]3(C)[C@@H](CC[C@@]34CCC(=O)O4)[C@H]12 | inconclusive: 0.00229 µM | inactive
44 | NC(=NCCCCCCN=C(N)/N=C(\N)Nc1ccc(Cl)cc1)/N=C(\N)Nc1ccc(Cl)cc1 | active: 9.07 µM and active: 13.5 µM and active: 19.2 µM | 
